According to the supplement of paper PMC5949888:
Most values lie at the floor of the assay. Slopes are relative: functional sequences can read slightly below zero.

Each substance was assayed on Saccharomyces cerevisiae PS128 hsf1 delta, HSF1(1-493) fusion (assay: growth estimate (transactivation domain function in HSF1 fusion, heat-shock survival) (a.u. (slope of normalised read count over time)); higher = stronger growth at 37°C, i.e. more transactivation activity). Conditions: library: random library.
Protocol: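 Random 60-nt DNA library encoding peptides of up to 20 aa, fused to the C-terminus of yeast HSF1 residues 1-493 (C-terminal TAD deleted) and expressed from the native HSF1 promoter on a CEN plasmid in hsf1-deleted S. cerevisiae PS128. Cells were selected at 37°C on -trp 5-FOA plates for 0, 2, 4, 6 and 8 days and amplicons were sequenced. Growth estimate is the slope of a robust linear fit of total-sum-normalised read counts (normalised to the first time point) over time, using at least 2 replicates. Sequences are classed functional (TAD activity) above a threshold of -0.13, set from stop-codon control sequences.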

| Substance | growth estimate |
| --- | --- |
| LTAGNERIEVYGHPTSPDRG | < -0.25 |
| MTPCLRGKGRVRTMMSGRSM | < -0.25 |
| PKSPLL | < -0.25 |
| DPS | < -0.25 |
| SGGPPDHVLCRLDIHS | < -0.25 |
| TRRWVGVDNTASRK | < -0.25 |
| VPGKRHCRLGHDLGVNHSDR | < -0.25 |
| HLNRWYFG | < -0.25 |
| IRGQRSGQSGLRESAKQQRA | < -0.25 |
| TLALSLPSEPGTSDLVVGTS | < -0.25 |
| RDIASG | < -0.25 |
| PRVLGLPDG | < -0.25 |
| DAQG | < -0.25 |
| WTGRSLVFWVGHSGVQASES | < -0.25 |
| VGLPSHRIAMHECIDRQAGT | < -0.25 |
| ESSSSKRIVVRQKRAAASFI | < -0.25 |
| LCLVSLAVTPPGTLISLSHR | < -0.25 |
| LSLVYGRRKRSIRKFTSLVV | < -0.25 |
| TAGSKRTGPKPCEWRLASR | < -0.25 |
| RGVSRLPRWTRCSRSGVPCR | < -0.25 |
| VVPVTPGGRRSFR | < -0.25 |
| GQRAPA | < -0.25 |
| SRFNKSCDGTQIDLRHWVTP | < -0.25 |
| RGFGSFNPIPNAADLGRCVY | < -0.25 |
| QRAIVVSYQRMTGPGALDTD | < -0.25 |

| Substance | growth estimate |
| --- | --- |
| SLRYRAGINTFTRLLPTILI | < -0.25 |
| AEERQTMKICLRKRGQAVGA | < -0.25 |
| LKSAGQSA | < -0.25 |
| FYKRH | < -0.25 |
| LGYAL | < -0.25 |
| KCCPYNGGTRQFPLG | < -0.25 |
| DRLFRTWQVALTLKGWGCST | < -0.25 |
| STVELYDYGNGKAGTSYVFT | < -0.25 |
| LEVTKHNLARIERMRHCFVG | < -0.25 |
| RAFSTCPKYVAFVPRSESTP | < -0.25 |
| RNEPLT | < -0.25 |
| VRNVIDADKIFFSLFE | -0.245 |
| VQP | < -0.25 |
| GHRAGAHPRSEIGVRRRVYC | < -0.25 |
| RRGRTLSYETGLVQWTLDRG | -0.243 |
| TEGWNSSGFST | -0.246 |
| HGRLDPYTEDGGCYSEILVR | < -0.25 |
| IEISHPACAENGAGPAWPVP | < -0.25 |
| GWCINEISR | < -0.25 |
| STRQRVLKFSMAAV | < -0.25 |
| SNSGWKELIASWSPPVRGHL | < -0.25 |
| LKGGSEDIRR | < -0.25 |
| NLPEI | < -0.25 |
| PGHRGYEGAGDVTSIVVLMR | < -0.25 |
| NGASG | < -0.25 |

| Substance | growth estimate |
| --- | --- |
| GQENQGQGHLVQSCIYPGQS | < -0.25 |
| GFNGIFTPFETK | < -0.25 |
| GKIRNEAIKFFCTATDLSTC | < -0.25 |
| VRVIAPAIMRSLSGVTPARS | < -0.25 |
| QCLSRG | < -0.25 |
| QQDSAHRAICSKRISVEFCG | < -0.25 |
| KVTANAR | < -0.25 |
| RAHRVSGNLIVNMSQNRTRS | < -0.25 |
| MLSTIGY | < -0.25 |
| SAWIYCPVRSIDVTDCISHN | < -0.25 |
| SDEPRRITLDLPAPTYHEQL | < -0.25 |
| FRGETIARSFMRRLESLRYA | < -0.25 |
| PNAETGRKVPSCLV | < -0.25 |
| LVPACVLGISRAVR | < -0.25 |
| SCFASFWTGSVAASVLVSRV | < -0.25 |
| PPDWATAT | < -0.25 |
| NTARREGLRCRQSGCYLPFH | < -0.25 |
| LPNGRTCSRRASVVLGPYPA | < -0.25 |
| QICPDCFDMPALTCGELLFL | -0.137 |
| RWGGTVSGQW | < -0.25 |
| RTTEPTRPCFWR | -0.243 |
| SLLEV | < -0.25 |
| LCFRTFLCSAKIGYANCKDP | < -0.25 |
| RGSGQNLMSLAYPIG | < -0.25 |
| SSTVDATYGDNVYSEKIS | < -0.25 |

| Substance | growth estimate |
| --- | --- |
| PGPTRTQCDVSNKRQSTKRI | < -0.25 |
| ASRPRI | < -0.25 |
| TRYCAAKR | < -0.25 |
| AVMTLRLSM | < -0.25 |
| LGLRCGKTDNEFQCYYGDFR | < -0.25 |
| MIMATK | < -0.25 |
| RNQDPASYILRWGNPVLVED | < -0.25 |
| PLLTIS | < -0.25 |
| ILMWYPRYASVFHRVLSDWG | < -0.25 |
| TPHGRCRR | < -0.25 |
| FGWTV | < -0.25 |
| LEVSTST | < -0.25 |
| RFQRRIRRSPSRLFLGEASR | < -0.25 |
| SPAEGDGTYWLSTWERHSVG | -0.177 |
| RVSGK | < -0.25 |
| GEPQLSEHLLSHRREVLAMA | < -0.25 |
| TVSDRSGCSWRGRGCGMVLS | < -0.25 |
| NEHTLLLTEVTTLPRRGVRG | -0.246 |
| LAGYELIKYG | < -0.25 |
| GIFDSSSNFESMVPQSEAGL | < -0.25 |
| MALRGTTYV | < -0.25 |
| RWGGQCQPGQRVCSVVQQK | < -0.25 |
| CVKDYRVYCRD | < -0.25 |
| VIGARHGQGSGWAPSGSVPV | < -0.25 |
| LGPAANRRQHLGSKENKIKA | -0.246 |

For reference, part of the list above:

| Substance | growth estimate |
| --- | --- |
| IRGQRSGQSGLRESAKQQRA | < -0.25 |
| TLALSLPSEPGTSDLVVGTS | < -0.25 |
| RDIASG | < -0.25 |
| PRVLGLPDG | < -0.25 |
| DAQG | < -0.25 |
| WTGRSLVFWVGHSGVQASES | < -0.25 |
| VGLPSHRIAMHECIDRQAGT | < -0.25 |
| ESSSSKRIVVRQKRAAASFI | < -0.25 |
| LCLVSLAVTPPGTLISLSHR | < -0.25 |
| LSLVYGRRKRSIRKFTSLVV | < -0.25 |
| TAGSKRTGPKPCEWRLASR | < -0.25 |
| RGVSRLPRWTRCSRSGVPCR | < -0.25 |
| VVPVTPGGRRSFR | < -0.25 |
| GQRAPA | < -0.25 |
| SRFNKSCDGTQIDLRHWVTP | < -0.25 |
| RGFGSFNPIPNAADLGRCVY | < -0.25 |
| QRAIVVSYQRMTGPGALDTD | < -0.25 |
| SLRYRAGINTFTRLLPTILI | < -0.25 |
| AEERQTMKICLRKRGQAVGA | < -0.25 |
| LKSAGQSA | < -0.25 |
| FYKRH | < -0.25 |
| LGYAL | < -0.25 |
| KCCPYNGGTRQFPLG | < -0.25 |
| DRLFRTWQVALTLKGWGCST | < -0.25 |
| STVELYDYGNGKAGTSYVFT | < -0.25 |
| LEVTKHNLARIERMRHCFVG | < -0.25 |
| RAFSTCPKYVAFVPRSESTP | < -0.25 |
| RNEPLT | < -0.25 |
| VRNVIDADKIFFSLFE | -0.245 |
| VQP | < -0.25 |
| GHRAGAHPRSEIGVRRRVYC | < -0.25 |
| RRGRTLSYETGLVQWTLDRG | -0.243 |
| TEGWNSSGFST | -0.246 |
| HGRLDPYTEDGGCYSEILVR | < -0.25 |
| IEISHPACAENGAGPAWPVP | < -0.25 |
| GWCINEISR | < -0.25 |
| STRQRVLKFSMAAV | < -0.25 |
| SNSGWKELIASWSPPVRGHL | < -0.25 |
| LKGGSEDIRR | < -0.25 |
| NLPEI | < -0.25 |
| PGHRGYEGAGDVTSIVVLMR | < -0.25 |
| NGASG | < -0.25 |
| GQENQGQGHLVQSCIYPGQS | < -0.25 |

Next records:

| Substance | growth estimate |
| --- | --- |
| IIPEHLVTCRGGLLVHPTPL | < -0.25 |
| LADWHSPAGRLALCTGHSVS | < -0.25 |
| GAFVASATRDFVVRLSRKHE | < -0.25 |
| MVANNARGIILVC | < -0.25 |
| GGVAYIYT | < -0.25 |
| PGGPSEKNGITWNDTFHRQS | < -0.25 |
| VPYRSACRVWRSA | < -0.25 |
| PVGAVSGTAVAPGCPQLFAD | < -0.25 |
| SEPLP | < -0.25 |
| GFPKKCRRRWTHPN | < -0.25 |
| QSLVQ | < -0.25 |
| VRQQLDVNSGRVRVRSPWGR | < -0.25 |
| KRYALLEPDRYWILHGNITS | < -0.25 |
| HQFP | < -0.25 |
| RDLD | < -0.25 |
| RFTLVQAIATGWYEPRSDCV | -0.219 |
| KFRFAWVQGKQVRHRPPHAV | < -0.25 |
| RANTARYKRYLPMRALRMVT | < -0.25 |
| TGGRLPGRISCLIPGVTQAS | < -0.25 |
| AIRQAKLWFPTATNATCLSA | < -0.25 |
| CLKTALMKRFRANGRTLKPY | < -0.25 |
| PHSAQRGE | < -0.25 |
| FGFDRIRFPFQSTHQPA | < -0.25 |
| PNWVQRS | < -0.25 |
| GLLEENCTNCGKS | < -0.25 |

| Substance | growth estimate |
| --- | --- |
| ALH | < -0.25 |
| MGRPPTGREP | < -0.25 |
| SISLAAFRISVITV | < -0.25 |
| FPCSIENLTEEGVNTSGISN | < -0.25 |
| FRCVLGSLLG | < -0.25 |
| NDLWFGTHAEAGPIRC | < -0.25 |
| KGHNHGEVCSTHTGVTPSRA | < -0.25 |
| ASYVSAGCPMGNTSYRTLTP | < -0.25 |
| RVAYRARDA | < -0.25 |
| MGTMH | < -0.25 |
| ENILRFNP | < -0.25 |
| GRMVREDSWEGCVLRGFASL | < -0.25 |
| ITNVFPATQKACALLVSSEA | < -0.25 |
| TQMLSTGNTWFFAGQNSIAV | < -0.25 |
| CSTPFTAQSLARTSR | < -0.25 |
| SRMRHGKQCRVL | < -0.25 |
| NNWTE | < -0.25 |
| GLAGRLNFLNRVLTSLNGGI | < -0.25 |
| SCTLGSAG | < -0.25 |
| DYSCGFKR | < -0.25 |
